The numbers were not newly measured in US20090169540A1, “Use Of An Antagonist Of Epac For Treating Human Cardiac Hypertrophy” (priority 2005, published 2009), which cites them from elsewhere.

Like-named read-outs stand apart in the source and are kept apart here.

The conditions of this series: cited from earlier work.

As for `CCCCc1oc2ccccc2c1C(=O)c1cc(I)c(OCCN(CC)CC)c(I)c1` [Amiodarone], the Pulmonary toxicity incidence runs as follows: (as high as, in some reports) 10%-17%; (in some studies) 2%-7%.
